Measurements taken from article PMC7954791, “MAGIs regulate aPKC to enable balanced distribution of intercellular tension for epithelial sheet homeostasis” (Communications Biology, 2021).
No constants are given. Whether binding was seen depends on the method and setting. In cells and extracts the contact can be indirect. Some results given as binding are weak or reduced against the parent protein; the word gives no strength. For part of these data: Sequences can lack the tags named with a protein.

Sequences of proteins named here, by UniProt entry; tags and fusion partners are left off.
UniProt Q9QZQ1: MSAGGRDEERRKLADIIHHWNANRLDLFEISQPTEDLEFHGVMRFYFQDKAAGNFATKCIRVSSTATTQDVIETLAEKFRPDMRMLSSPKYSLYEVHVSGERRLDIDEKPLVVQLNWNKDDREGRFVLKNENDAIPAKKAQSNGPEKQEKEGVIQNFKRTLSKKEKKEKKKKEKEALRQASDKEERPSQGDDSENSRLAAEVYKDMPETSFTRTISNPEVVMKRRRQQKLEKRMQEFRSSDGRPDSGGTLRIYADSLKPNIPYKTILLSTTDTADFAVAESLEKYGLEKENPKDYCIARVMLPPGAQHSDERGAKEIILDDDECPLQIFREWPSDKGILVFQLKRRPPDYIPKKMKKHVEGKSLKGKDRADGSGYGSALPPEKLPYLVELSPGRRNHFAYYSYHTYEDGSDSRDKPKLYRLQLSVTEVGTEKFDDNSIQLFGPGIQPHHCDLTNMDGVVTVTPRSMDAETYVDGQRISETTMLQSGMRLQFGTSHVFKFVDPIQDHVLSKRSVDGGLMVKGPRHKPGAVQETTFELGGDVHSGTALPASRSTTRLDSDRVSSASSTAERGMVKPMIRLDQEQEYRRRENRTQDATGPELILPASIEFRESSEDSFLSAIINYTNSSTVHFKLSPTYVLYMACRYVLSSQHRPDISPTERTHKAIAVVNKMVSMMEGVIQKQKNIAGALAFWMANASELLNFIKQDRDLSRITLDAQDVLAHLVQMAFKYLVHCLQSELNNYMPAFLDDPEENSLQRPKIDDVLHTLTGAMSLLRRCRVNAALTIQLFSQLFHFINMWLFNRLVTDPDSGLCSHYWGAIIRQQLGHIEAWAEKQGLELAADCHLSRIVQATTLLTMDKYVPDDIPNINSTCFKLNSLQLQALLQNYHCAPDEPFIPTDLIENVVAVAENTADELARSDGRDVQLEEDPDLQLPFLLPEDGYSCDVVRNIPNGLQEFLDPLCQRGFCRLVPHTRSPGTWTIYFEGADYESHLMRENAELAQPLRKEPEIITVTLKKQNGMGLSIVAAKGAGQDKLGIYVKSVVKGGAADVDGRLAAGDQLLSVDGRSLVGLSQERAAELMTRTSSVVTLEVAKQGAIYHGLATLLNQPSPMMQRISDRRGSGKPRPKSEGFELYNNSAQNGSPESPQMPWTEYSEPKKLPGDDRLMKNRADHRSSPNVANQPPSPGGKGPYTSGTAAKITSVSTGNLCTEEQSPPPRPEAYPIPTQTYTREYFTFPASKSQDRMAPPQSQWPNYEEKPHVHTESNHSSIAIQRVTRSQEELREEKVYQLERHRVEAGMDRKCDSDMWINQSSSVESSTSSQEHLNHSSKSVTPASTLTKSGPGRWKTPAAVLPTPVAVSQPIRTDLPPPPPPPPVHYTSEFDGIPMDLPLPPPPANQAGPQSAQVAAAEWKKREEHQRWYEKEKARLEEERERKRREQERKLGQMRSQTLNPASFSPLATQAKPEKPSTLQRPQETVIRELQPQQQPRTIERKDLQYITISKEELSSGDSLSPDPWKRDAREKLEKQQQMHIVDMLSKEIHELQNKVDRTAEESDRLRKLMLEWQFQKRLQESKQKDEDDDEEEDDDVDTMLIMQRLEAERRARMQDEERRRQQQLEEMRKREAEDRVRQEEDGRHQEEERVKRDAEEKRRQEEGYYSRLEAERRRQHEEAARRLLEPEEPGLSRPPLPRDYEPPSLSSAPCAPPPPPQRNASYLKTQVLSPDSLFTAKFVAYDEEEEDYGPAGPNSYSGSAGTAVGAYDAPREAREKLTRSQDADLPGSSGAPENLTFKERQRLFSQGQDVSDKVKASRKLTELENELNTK
UniProt P39447: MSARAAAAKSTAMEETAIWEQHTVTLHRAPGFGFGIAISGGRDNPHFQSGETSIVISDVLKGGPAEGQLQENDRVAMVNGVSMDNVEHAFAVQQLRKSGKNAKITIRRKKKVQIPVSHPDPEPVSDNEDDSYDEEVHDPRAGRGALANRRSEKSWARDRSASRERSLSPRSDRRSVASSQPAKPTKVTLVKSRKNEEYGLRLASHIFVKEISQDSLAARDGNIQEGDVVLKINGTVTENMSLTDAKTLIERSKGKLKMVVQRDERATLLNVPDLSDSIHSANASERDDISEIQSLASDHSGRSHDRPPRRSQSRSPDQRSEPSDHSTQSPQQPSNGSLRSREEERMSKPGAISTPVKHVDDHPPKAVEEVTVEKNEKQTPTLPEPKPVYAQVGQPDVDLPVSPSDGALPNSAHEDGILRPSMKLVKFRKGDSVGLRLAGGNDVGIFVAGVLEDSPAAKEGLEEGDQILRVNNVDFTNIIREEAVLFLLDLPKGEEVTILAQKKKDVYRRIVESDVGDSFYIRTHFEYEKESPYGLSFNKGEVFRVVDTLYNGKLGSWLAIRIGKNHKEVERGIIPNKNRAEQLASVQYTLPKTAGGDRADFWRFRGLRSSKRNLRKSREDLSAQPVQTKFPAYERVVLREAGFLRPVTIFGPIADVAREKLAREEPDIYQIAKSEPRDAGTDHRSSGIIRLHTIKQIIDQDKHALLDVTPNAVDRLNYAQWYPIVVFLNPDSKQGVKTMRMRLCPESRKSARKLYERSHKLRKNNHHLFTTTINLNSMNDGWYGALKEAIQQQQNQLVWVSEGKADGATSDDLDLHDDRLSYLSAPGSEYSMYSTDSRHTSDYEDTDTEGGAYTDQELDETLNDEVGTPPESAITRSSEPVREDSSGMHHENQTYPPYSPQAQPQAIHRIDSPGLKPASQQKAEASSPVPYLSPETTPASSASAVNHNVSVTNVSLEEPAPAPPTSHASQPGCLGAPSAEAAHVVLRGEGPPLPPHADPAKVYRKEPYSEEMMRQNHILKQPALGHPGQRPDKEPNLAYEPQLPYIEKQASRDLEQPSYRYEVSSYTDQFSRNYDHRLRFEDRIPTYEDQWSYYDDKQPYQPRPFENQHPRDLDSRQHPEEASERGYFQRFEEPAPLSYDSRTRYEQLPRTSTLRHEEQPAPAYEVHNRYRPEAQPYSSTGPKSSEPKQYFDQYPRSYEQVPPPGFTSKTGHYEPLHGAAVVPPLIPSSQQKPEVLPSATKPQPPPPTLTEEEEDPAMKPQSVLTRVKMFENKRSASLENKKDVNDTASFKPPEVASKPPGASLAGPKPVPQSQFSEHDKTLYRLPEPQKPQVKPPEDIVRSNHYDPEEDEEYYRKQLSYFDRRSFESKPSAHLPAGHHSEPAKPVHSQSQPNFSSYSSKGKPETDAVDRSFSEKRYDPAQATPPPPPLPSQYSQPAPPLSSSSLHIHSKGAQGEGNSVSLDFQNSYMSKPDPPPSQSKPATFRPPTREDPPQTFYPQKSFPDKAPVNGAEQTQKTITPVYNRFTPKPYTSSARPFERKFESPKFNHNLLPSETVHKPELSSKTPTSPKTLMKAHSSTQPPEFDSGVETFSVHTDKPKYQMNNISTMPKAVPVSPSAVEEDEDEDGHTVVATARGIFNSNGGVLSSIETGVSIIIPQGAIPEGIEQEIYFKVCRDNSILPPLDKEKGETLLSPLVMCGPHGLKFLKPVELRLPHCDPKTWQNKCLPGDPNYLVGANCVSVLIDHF
UniProt Q6RHR9: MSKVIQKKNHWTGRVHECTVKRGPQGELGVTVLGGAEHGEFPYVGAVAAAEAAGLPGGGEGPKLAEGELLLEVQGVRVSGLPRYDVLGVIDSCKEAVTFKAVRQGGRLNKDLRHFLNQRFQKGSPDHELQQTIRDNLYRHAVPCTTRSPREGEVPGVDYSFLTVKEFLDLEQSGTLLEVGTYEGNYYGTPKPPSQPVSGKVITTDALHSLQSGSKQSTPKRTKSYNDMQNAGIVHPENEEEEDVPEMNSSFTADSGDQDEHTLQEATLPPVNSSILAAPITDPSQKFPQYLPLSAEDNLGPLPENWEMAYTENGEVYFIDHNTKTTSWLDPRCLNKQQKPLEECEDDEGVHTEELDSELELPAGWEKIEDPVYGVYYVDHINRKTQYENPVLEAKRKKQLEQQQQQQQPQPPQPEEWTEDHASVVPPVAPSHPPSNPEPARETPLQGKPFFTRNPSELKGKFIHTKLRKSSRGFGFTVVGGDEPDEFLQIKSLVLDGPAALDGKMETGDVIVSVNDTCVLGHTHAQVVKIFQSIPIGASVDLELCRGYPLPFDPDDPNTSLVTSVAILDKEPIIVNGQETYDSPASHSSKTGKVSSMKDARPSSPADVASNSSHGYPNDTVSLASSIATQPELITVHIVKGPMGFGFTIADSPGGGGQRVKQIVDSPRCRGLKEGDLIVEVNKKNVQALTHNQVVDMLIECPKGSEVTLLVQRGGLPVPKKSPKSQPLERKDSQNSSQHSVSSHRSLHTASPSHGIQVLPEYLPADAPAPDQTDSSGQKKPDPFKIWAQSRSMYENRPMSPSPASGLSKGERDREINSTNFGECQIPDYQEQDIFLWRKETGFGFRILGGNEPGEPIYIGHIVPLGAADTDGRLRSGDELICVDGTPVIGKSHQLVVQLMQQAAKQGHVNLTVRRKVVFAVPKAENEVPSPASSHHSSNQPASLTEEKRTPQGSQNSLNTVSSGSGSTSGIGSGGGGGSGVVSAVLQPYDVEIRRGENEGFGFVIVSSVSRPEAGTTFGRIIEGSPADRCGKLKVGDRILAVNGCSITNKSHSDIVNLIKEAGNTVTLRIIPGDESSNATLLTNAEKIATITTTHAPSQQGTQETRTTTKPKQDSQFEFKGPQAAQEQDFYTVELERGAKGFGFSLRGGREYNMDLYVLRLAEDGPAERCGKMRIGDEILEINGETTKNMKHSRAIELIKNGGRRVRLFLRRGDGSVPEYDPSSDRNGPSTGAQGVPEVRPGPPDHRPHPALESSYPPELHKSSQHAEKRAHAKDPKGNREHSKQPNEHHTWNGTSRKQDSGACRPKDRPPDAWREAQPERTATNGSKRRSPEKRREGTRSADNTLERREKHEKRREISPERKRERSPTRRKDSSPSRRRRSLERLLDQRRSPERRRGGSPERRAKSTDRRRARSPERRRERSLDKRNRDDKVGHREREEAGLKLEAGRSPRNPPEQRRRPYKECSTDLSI

Experiments:
[1] = target: T1, FLAG-tagged RASSF10 stably expressed in EpH4 cells (UniProt Q8BL43); experiment: co-IP; precipitation of FLAG-RASSF10 stably expressed to a low level in EpH4 cells; endogenous partners detected by blot
T1 sequence: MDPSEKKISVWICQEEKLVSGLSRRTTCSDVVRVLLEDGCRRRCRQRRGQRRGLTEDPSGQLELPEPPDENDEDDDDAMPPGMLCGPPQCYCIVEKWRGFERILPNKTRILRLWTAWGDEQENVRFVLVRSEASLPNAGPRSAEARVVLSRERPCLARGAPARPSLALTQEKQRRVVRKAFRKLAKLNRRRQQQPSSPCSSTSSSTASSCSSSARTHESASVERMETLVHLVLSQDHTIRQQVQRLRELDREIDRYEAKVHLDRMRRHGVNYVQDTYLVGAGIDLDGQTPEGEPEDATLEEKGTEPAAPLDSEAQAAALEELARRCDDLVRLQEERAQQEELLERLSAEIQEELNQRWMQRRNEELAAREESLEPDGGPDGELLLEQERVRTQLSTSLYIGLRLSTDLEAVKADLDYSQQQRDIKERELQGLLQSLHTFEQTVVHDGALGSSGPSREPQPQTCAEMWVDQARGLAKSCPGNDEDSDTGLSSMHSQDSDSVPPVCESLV

[2] = target: afadin (endogenous, EpH4 cells) (mouse (endogenous in EpH4)) (UniProt Q9QZQ1); experiment: co-IP; immunoprecipitation of endogenous proteins from epithelial cells with specific or isotype control antibodies overnight, Protein G-Sepharose; 20 mM HEPES-NaOH pH 7.4, 100 mM NaCl, 5 mM EDTA, 10% glycerol, 1% Triton X-100
[3] = target: T2, ZO-2 (endogenous, EpH4 cells) (mouse (endogenous in EpH4)) (UniProt Q9Z0U1); experiment: as above
T2 sequence: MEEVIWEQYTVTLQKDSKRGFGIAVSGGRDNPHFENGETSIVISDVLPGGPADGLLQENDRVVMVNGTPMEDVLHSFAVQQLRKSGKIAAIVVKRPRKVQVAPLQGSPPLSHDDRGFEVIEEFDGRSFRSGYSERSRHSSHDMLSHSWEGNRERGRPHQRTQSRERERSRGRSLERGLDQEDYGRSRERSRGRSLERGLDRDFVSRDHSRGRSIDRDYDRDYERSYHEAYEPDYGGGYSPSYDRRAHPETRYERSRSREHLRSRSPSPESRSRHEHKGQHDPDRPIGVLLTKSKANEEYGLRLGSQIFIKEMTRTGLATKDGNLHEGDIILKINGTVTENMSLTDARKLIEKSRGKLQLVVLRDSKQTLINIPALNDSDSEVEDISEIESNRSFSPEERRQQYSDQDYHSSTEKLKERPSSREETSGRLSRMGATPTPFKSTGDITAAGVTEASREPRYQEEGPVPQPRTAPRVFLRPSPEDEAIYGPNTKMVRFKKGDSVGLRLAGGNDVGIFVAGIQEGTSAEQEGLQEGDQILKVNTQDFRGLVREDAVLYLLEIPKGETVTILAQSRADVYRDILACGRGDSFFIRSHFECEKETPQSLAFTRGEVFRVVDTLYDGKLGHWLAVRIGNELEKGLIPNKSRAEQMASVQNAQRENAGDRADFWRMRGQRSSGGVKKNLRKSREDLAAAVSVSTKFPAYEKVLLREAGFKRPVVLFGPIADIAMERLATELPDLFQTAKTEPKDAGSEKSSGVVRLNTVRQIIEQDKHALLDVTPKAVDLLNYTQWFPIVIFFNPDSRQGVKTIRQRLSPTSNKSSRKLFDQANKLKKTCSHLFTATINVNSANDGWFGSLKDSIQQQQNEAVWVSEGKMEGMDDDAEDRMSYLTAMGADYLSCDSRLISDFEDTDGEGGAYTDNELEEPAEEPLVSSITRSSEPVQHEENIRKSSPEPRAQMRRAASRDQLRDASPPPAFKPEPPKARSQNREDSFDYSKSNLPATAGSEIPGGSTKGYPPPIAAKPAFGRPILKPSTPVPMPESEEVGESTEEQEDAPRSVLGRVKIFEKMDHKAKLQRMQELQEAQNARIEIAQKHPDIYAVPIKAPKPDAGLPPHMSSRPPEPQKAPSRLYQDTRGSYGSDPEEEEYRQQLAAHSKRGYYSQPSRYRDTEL

[4] = target: ZO-1 (endogenous, EpH4 cells) (mouse (endogenous in EpH4)) (UniProt P39447); experiment: as above

Measured: binding

MAGI-1 (endogenous, EpH4 cells) (from UniProt Q6RHR9 1-1471)
binds: all assays above

B1: MAGI-3 (endogenous, EpH4 cells) (protein, UniProt Q9EQJ9 1-1476)
chain: MSKTLKKKKHWLSKVQECAVSWAGPPGDLGAEIRGGAERGEFPYLGRLRDEAGGGGGTCCVVSGKAPSPGDVLLEVNGTPVSGLTNRDTLAVIRHFREPIRLKTVKPGKVINKDLRHYLSLQFQKGSIDHKLQQVIRDNLYLRTIPCTTRAPRDGEVPGVDYNFISVEQFKALEESGALLESGTYDGNFYGTPKPPAEPSPFQPDPVDQVLFDNEFDTESQRKRTTSVSKMERMDSSLPEEEEDEDKEAVNGSGSMETREMHSETSDCWMKTVPSYNQTNSSMDFRNYMMRDENLEPLPKNWEMAYTDTGMIYFIDHNTKTTTWLDPRLCKKAKAPEDCEDGELPYGWEKIEDPQYGTYYVDHLNQKTQFENPVEEAKRKKQLGQAEIHSAKTDVERAHFTRDPSQLKGVLVRASLKKSTMGFGFTIIGGDRPDEFLQVKNVLKDGPAAQDGKIAPGDVIVDINGNCVLGHTHADVVQMFQLVPVNQYVNLTLCRGYPLPDDSEDPVVDIVAATPVINGQSLTKGETCMNTQDFKLGAMVLDQNGKSGQILASDRLNGPSESSEQRASLASSGSSQPELVTIPLIKGPKGFGFAIADSPTGQKVKMILDSQWCQGLQKGDIIKEIYHQNVQNLTHLQVVEVLKQFPVGADVPLLILRGGPCSPTKTAKTKTDTKENSGSLETINEPIPQPMPFPPSIIRSGSPKLDPSEVYLKSKTLYEDKPPNTKDLDVFLRKQESGFGFRVLGGDGPDQSIYIGAIIPLGAAEKDGRLRAADELMCIDGIPVKGKSHKQVLDLMTTAARNGHVLLTVRRKIFYGEKQPEDESHQAFSQNGSPRLNRAELPTRSAPQEAYDVTLQRKENEGFGFVILTSKSKPPPGVIPHKIGRVIDGSPADRCGGLKVGDHISAVNGQSIVDLSHDNIVQLIKDAGVTVTLTVVAEEEHHGPPSGTNSARQSPALQHRPMGQAQANHIPGDRIALEGEIGRDVCSSYRHSWSDHKHLAQPDTAVISVVGSRHNQSLGCYPVELERGPRGFGFSLRGGKEYNMGLFILRLAEDGPAIKDGRIHVGDQIVEINGEPTQGITHTRAIELIQAGGNKVLLLLRPGTGLIPDHGDWDTNSPSSSNVIYDEQPPPLPSSHSASTFEESHVPATEDSLTRVQICEKAEELKDTVQEKKSTLNGSQPEMKYQSVHKTMSKKDPPRGSGHGEKSRLKGENGVTRRGRSASPKKSVNRHSEEHLEKIPRPLKSDPKEKSRDRSLSPRKGESKGRLTIKAGSGQDPYRKDRGRSSSPKKQQKIGGNSLSNTEGKLSEAGSRRAAGHPRDSTEQLPDGREKSGVSRKDLKQSQPGKTRTKSPEKKSSKVDETSLPSKKTSSTAGRVVSEKEKGKKPTAGETSRETVEHTQISAKQLKQEAQEKTALGNADDHKGRESEVTDRCRERAGCTPQSSSLVKKAPITPGPWRVPRANKVTGTTGMADKQL
binds: all assays above

B2: ASPP2 (endogenous, EpH4 cells) (protein, UniProt Q8CG79 1-1128)
chain: MMPMFLTVYLSNSEQHFTEVPVTPETICRDVVDLCKEPGENDCHLAEVWCGSERPVADNERMFDVLQRFGSQRNEVRFFLRHERPPNRDIVSGPRSQDPSVKRNGVKVPGEHRRKENGVNSPRLDLTLAELQEMASRQQQQIEAQQQMLATKEQRLKFLKQQDQRQQQQAAEQEKLKRLREIAESQEAKLKKVRALKGHVEQKRLSNGKLVEEIEQMNSLFQQKQRELVLAVSKVEELTRQLEMLKNGRIDGHHDNQSAVAELDRLYKELQLRNKLNQEQNAKLQQQRECLNKRNSEVAVMDKRVSELRDRLWKKKAALQQKENLPVSPDGNLPQQAVSAPSRVAAVGPYIQSSTMPRMPSRPELLVKPALPDGSLLMQSAEGPMKIQTLPNMRSGAASQSKGSKAHPASPDWNPSNADLLPSQGSSVPQSAGTALDQVDDGEIAVREKEKKVRPFSMFDTVDQCAAPPSFGTLRKNQSSEDILRDAQAVNKNVAKVPPPVPTKPKQIHLPYFGQTAQSPSDMKPDGNAQQLPIAATSVGAKLKPAGPQARMLLSPGAPSGGQDQVLSPASKQESPPAAAVRPFTPQPSKDTFPPAFRKPQTVAASSIYSMYTQQQAPGKNFQQAVQSALTKTQPRGPHFSSVYGKPVIAAAQNPQQHPENIYSCSQGKPGSPEPETETVSSVHESHENERIPRPLSPTKLLPFLSNPYRNQSDADLEALRKKLSNAPRPLKKRSSITEPEGPNGPNIQKLLYQRTTIAAMETISVPSHPSKSPGSVTVNPESSVEIPNPYLHVEPEKEVGSLVPEPLSPEDMGSASTENSDVPAPSAGLEYVSEGVTDSSTNLQNNVEETNPEAPHLLEVYLEEYPPYPPPPYPSGEPEVSEEDSARMRPPEITGQVSLPPGKRTNLRKTGSERIAHGMRVKFNPLALLLDSSLEGEFDLVQRIIYEVDDPSLPNDEGITALHNAVCAGHTEIVKFLVQFGVNVNAADSDGWTPLHCAASCNNVQVCKFLVESGAAVFAMTYSDMQTAADKCEEMEEGYTQCSQFLYGVQEKMGIMNKGVIYALWDYEPQHDDELLMKEGDCMTVIRREDEEEIEWWWARLNDKEGYVPRNLLGLYPRIKPRQRSLA
binds: [1]
